Values from PubChem BioAssay AID1508597 (Cure First, 2020)

- Screen: 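Survival screen with siRNA in ovarian cancer cells derived from patients, with or without rucaparib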 (primary screen)
- System: human ovarian carcinoma lines grown from tumours: OCI-P5x (papillary serous) and OCI-C5x (clear cell)
- Reagent: siRNA pool against human genes, 1.25 pmol siRNA per well
- Timing: 72 h or 96 h, depending on the cell culture
- Conditions: rucaparib 20 µM (about IC30) or vehicle, present until read-out
- Detection: 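ATP luminescence measured at 72 or 96 h according to the culture, then normalised and expressed as percent viability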
- Direction: viability, normalised: higher = more viable cells remaining
- Active means: 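a well counts as a hit if its normalised viability is under 80 percent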
- Meaning of the calls: active = viability under 80%; inactive = viability 80% or more
Here is an unselected part of about 2,100 deposited reagents. 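Calls flag viability under 80% in either arm, not effects specific to rucaparib; the reference for percent is not stated.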 A number with no mark means an inactive call. Not stated in the record: the 100% reference.

| viability, normalised (%) | gene | rucaparib or vehicle | cell line | technical replicate |
| --- | --- | --- | --- | --- |
| 57.7 (active) | TCF19 | Rucaparib | OCI-C5x (clear cell) | 1 |
| 73.9 (active) | TCF19 | Rucaparib | OCI-C5x (clear cell) | 2 |
| 69.1 (active) | TCF19 | Rucaparib | OCI-C5x (clear cell) | 3 |
| 45.6 (active) | TCF19 | Rucaparib | OCI-P5x (serous) | 1 |
| 55.4 (active) | TCF19 | Rucaparib | OCI-P5x (serous) | 2 |
| 61.5 (active) | TCF19 | Rucaparib | OCI-P5x (serous) | 3 |
| 39 (active) | TCF19 | Vehicle | OCI-C5x (clear cell) | 1 |
| 76.4 (active) | TCF19 | Vehicle | OCI-C5x (clear cell) | 2 |
| 63.5 (active) | TCF19 | Vehicle | OCI-C5x (clear cell) | 3 |
| 91.1 | TCF19 | Vehicle | OCI-P5x (serous) | 1 |
| 57 (active) | TCF19 | Vehicle | OCI-P5x (serous) | 2 |
| 69.9 (active) | TCF19 | Vehicle | OCI-P5x (serous) | 3 |
| 40.4 (active) | UBR2 | Rucaparib | OCI-C5x (clear cell) | 1 |
| 55 (active) | UBR2 | Rucaparib | OCI-C5x (clear cell) | 2 |
| 47.5 (active) | UBR2 | Rucaparib | OCI-C5x (clear cell) | 3 |
| 76.9 (active) | UBR2 | Rucaparib | OCI-P5x (serous) | 1 |
| 94.9 | UBR2 | Rucaparib | OCI-P5x (serous) | 2 |
| 89 | UBR2 | Rucaparib | OCI-P5x (serous) | 3 |
| 37.9 (active) | UBR2 | Vehicle | OCI-C5x (clear cell) | 1 |
| 43.9 (active) | UBR2 | Vehicle | OCI-C5x (clear cell) | 2 |
| 40.1 (active) | UBR2 | Vehicle | OCI-C5x (clear cell) | 3 |
| 58 (active) | UBR2 | Vehicle | OCI-P5x (serous) | 1 |
| 68.7 (active) | UBR2 | Vehicle | OCI-P5x (serous) | 2 |
| 69.2 (active) | UBR2 | Vehicle | OCI-P5x (serous) | 3 |

Reformatted: entries from further up
viability, normalised (%) | gene | rucaparib or vehicle | cell line | technical replicate
91.1 | TCF19 | Vehicle | OCI-P5x (serous) | 1
57 (active) | TCF19 | Vehicle | OCI-P5x (serous) | 2
69.9 (active) | TCF19 | Vehicle | OCI-P5x (serous) | 3
